Measurements: patent US10098841B2, “Method of inducing a phase transition of a bilayer membrane vesicle” (Japan Science and Technology Agency, priority 2005, dated 2018)

Assay: Quantification of pseudo-ceramide 2B produced in the MLV by ESI-MS

Row | Compound | Yield of pseudo-ceramide (DMT-MM 50 equivalents, MLV without tertiary amine, 36 hr) [%] | Yield of pseudo-ceramide (CDMT 25 equivalents, C16 tertiary amine in MLV, 2 hr) [%] | Yield of pseudo-ceramide (CDMT 25 equivalents, C16 tertiary amine in MLV, 5 hr) [%] | Yield of pseudo-ceramide (CDMT 50 equivalents, C8 tertiary amine in MLV, 5 hr) [%] | Yield of pseudo-ceramide (CDMT 50 equivalents, C8 tertiary amine in MLV, 12 hr) [%] | Yield of pseudo-ceramide (CDMT 50 equivalents, C16 tertiary amine in MLV, 2 hr) [%] | Yield of pseudo-ceramide (CDMT 50 equivalents, C16 tertiary amine in MLV, 5 hr) [%] | production of pseudo-ceramide (in words) (CDMT added to MLV dispersion that does not contain a tertiary amine)
1 | COc1nc(OC)nc([N+]2(C)CCOCC2)n1.[Cl-] [DMT-MM, 4-(4,6-dimethoxy-1,3,5-triazin-2-yl)-4-methylmorpholium chloride] | 9 | – | – | – | – | – | – | –
2 | COc1nc(Cl)nc(OC)n1 [CDMT, 2-chloro-4,6-dimethoxy-1,3,5-triazin] | – | 42 | 92 | 7 | 20 | 80 | 88 | not observed
